Measurements reported in patent publication US10174380B2, “Methods for predicting multiple myeloma treatment response” (INSERM (INSTITUT NATIONAL DE LA SANTE ET DE LA RECHERCHE …, priority 2012, dated 2019).

How the values were obtained:
[1] = test system: 5 HMCLs with the highest HA Score; experiment: Growth assay for myeloma cells (Cell Titer Glo, intracellular ATP), HMCLs with high HA Score; format: cell-based; conditions: Homo sapiens, 96 h, 4 days culture, IL-6 2 ng/ml, read-out: median IC50
Protocol: (§1) Data are mean values plus or minus standard deviation (SD) of 5 experiments determined on sextuplet culture wells.
(§2) HMCLs were cultured for 4 days in 96-well flat-bottom microtiter plates in RPMI 1640 medium, 10% FCS, 2 ng/ml IL-6 culture medium (control), with graded Panobinostat (A), VPA […] or SAHA (C) concentrations. Data are mean values plus or minus standard deviation (SD) of 5 experiments determined on sextuplet culture wells.
(§3) Cell growth was evaluated by quantifying intracellular ATP amount with a Cell Titer Glo Luminescent Assay (Promega, Madison, Wis.) with a Centro LB 960 luminometer (Berthold Technologies, Bad Wildbad, Germany).
(§4) The inventors sought to determine whether HA Score could predict for the sensitivity of 10 HMCLs to HDAC inhibitor.
(§5) The inventors sought to determine whether HA Score could predict for the sensitivity of myeloma cells to clinical grade HDAC inhibitors {Neri, 2012 #3317}.

[2] = test system: 5 HMCLs with low HA Score; experiment: Growth assay for myeloma cells (Cell Titer Glo, intracellular ATP), HMCLs with low HA Score; format: cell-based; conditions: Homo sapiens, 96 h, 4 days culture, IL-6 2 ng/ml, read-out: median IC50
Protocol: as §1, §2, §3, §4, §5

IC50 [1]: 528 nM
IC50 [2]: 897 nM
Compound: O=C(CCCCCCC(=O)Nc1ccccc1)NO [Vorinostat, vorinostat]
